Assay results from patent US20210315826A1, “NATURAL FLUORESCENT POLYDEDRAL AMINO ACID CRYSTALS FOR EFFICIENT ENTRAPMENT AND SYSTEMIC DELIVERY OF HYDROPHOBIC SMALL MOLECULES” (CORNELL UNIVERSITY, priority 2018, published 2021).

Tests used:
[1] = Microscopy (optical, SEM, CLSM) observation of entrapment inside L-His crystals; assay type: physicochemical; conditions: SEM and CLSM, crystals collected after 3 hours
[2] = Fluorescence lifetime of amino acid crystals (TCSPC); assay type: physicochemical; conditions: for a1 (%) / a2 (%) / τ1 (ns) / τ2 (ns): bi-exponential fit, crystals at room temperature; for Mean lifetime (ns): weighed mean lifetime of crystals, ((a1×τ1)+(a2×τ2))/(a1+a2)

Compound	Entrapment inside the L-His crystals observed by microscopy [1]	a1 (%) [2] [%]	a2 (%) [2] [%]	τ1 (ns) [2] [ns]	τ2 (ns) [2] [ns]	Mean lifetime (ns) [2] [ns]
c1cc2ccc3cccc4ccc(c1)c2c34 [pyrene]	observed inside the crystals					
NC(=O)C[C@H](N)C(=O)O [L-Asparagine, L-asparagine]		87.39	12.61	0.9	36.40	5.38
CC(/C=C/C=C(C)/C=C/C(=O)O)=C\C=C\C=C(C)\C=C\C=C(C)\C=C\C(=O)O (stereo in doubt) [norbixin]	not observed entrapped inside the L-His crystals					
CCN(CC)c1ccc2nc3c4ccccc4c(=O)cc-3oc2c1 [Nile red]	observed inside the crystals					
CC[C@H](C)[C@H](N)C(=O)O [L-Isoleucine, L-isoleucine]		59.75	40.25	0.79	5.69	2.76
N[C@@H](Cc1c[nH]cn1)C(=O)O [L-Histidine, L-histidine]		56.51	43.48	0.67	4.19	2.20
NC(=O)CC[C@H](N)C(=O)O [L-Glutamine, L-glutamine]		77.93	22.06	0.85	8.49	2.53
C[C@@H](O)[C@H](N)C(=O)O [L-Threonine, L-threonine]		61.02	21.07	1.31	19.46	4.90
CC1=C(/C=C/C(C)=C/C=C/C(C)=C/C=C/C=C(C)/C=C/C=C(C)/C=C/C2=C(C)CCCC2(C)C)C(C)(C)CCC1 [β-carotene]	observed inside the crystals					
fluorescein isothiocyanate [FITC]	not observed entrapped inside the L-His crystals					
CSCC[C@H](N)C(=O)O [L-Methionine, L-methionine]		66.54	33.46	1.25	9.19	3.91
CC(C)[C@H](N)C(=O)O [L-Valine, L-valine]		9.57	90.42	5.02	6.68	6.52

Some entries repeat one wording, which the source may state once for all of them.
